Test results: US10513547B2, “Peptides and combination of peptides and scaffolds thereof for use in immunotherapy against colorectal carcinoma (CRC) and other cancers” (Immatics Biotechnologies GmbH, priority 2015, dated 2019)

Test system: HLA molecules from shock-frozen tissue samples (CRC, other tumors, normal tissues)
Assay: Identification and label-free relative LC-MS quantitation of HLA-presented tumor associated peptides (presentation profiles, XPRESIDENT)
Parameters: species or system human; key to Peptide Presentation (presentation score): very highly over-presented on tumors compared to a panel of normal tissues (+++); highly over-presented on tumors compared to a panel of normal tissues (++); over-presented on tumors compared to a panel of normal tissues (+)
Details: for Other relevant organs/diseases: additional tumor types: over-presented on more than 5% of measured tumor samples, or presented on more than 5% with ratio of geometric means tumor vs normal larger than 3; for Peptide Presentation (presentation score): over-presentation on tumors compared to a panel of normal tissues; for Additional Entities (additional tumor types on which the peptide was found): over-presentation on more than 5% of the measured tumor samples, or presentation on more than 5% of the measured tumor samples with ratio of geometric means tumor vs normal tissues larger than 3

Substance	Other relevant organs/diseases	Peptide Presentation (presentation score)	Additional Entities (additional tumor types on which the peptide was found)	number of cancer tissues with detectable presentation of the peptide (all samples with detectable presentation, all tumor types)	number of normal tissues with detectable presentation of the peptide (normal tissue panel as in FIG. 1A-C)
202 (GLAALAVHL; listed as Homo sapiens) [compound 202]	Melanoma, Ovary, Esophagus	+++			
264 (RLLDVLAPLV; listed as Homo sapiens) [compound 264]	Kidney, Liver				
179 (RLLSPLSSA; listed as Homo sapiens) [compound 179]		+	AML, BRCA, PC, Gallbaldder Cancer, HCC, Melanoma, NHL, OC, Esophageal Cancer, Brain Cancer, NSCLC, SCLC, Uterine Cancer		
251 (SLLQATDFMSL; listed as Homo sapiens) [compound 251]	Kidney, Pancreas, Esophagus				
248 (ALYGDIDAV; listed as Homo sapiens) [compound 248]	Lung, Brain, Pancreas, Esophagus				
101 (GLSEGHTFQV; listed as Homo sapiens) [compound 101]	Prostate				
128 (MLDDRAYLV; listed as Homo sapiens) [compound 128]	Lung, Brain, Breast, MCC, Ovary, Esophagus	++			
153 (ILFSEDSTKLFV; listed as Homo sapiens) [compound 153]	Lung, Liver, Leukocytes, Melanoma, Ovary, Esophagus	+	Urinary bladder cancer, NHL		
87 (LLFDAPDLRL; listed as Homo sapiens) [compound 87]	Lung, Ovary		SCLC, BRCA, Urinary bladder cancer, Uterine Cancer		
39 (GLNGGSPAAA; listed as Homo sapiens) [compound 39]		+++			
102 (KILVSLIEV; listed as Homo sapiens) [compound 102]	Lung, Kidney, Ovary, Esophagus	+++	NHL		
16 (VLVDQSWVL; listed as Homo sapiens) [compound 16]	Ovary	+++	Esophageal Cancer, Urinary bladder cancer		
18 (FLSSLKGGLL; listed as Homo sapiens) [compound 18]	Ovary	+++	Melanoma, Urinary bladder cancer, Uterine Cancer, AML		
SEQ ID NO.: 152 (KLLAVIHEL; listed as Homo sapiens)				34	2
42 (SILDDSFKL; listed as Homo sapiens) [compound 42]		+++	Gallbladder Cancer, Bile Duct Cancer		
159 (VLVDDDGIKVV; listed as Homo sapiens) [compound 159]	Liver, Melanoma, Ovary	+++	SCLC, BRCA, Esophageal Cancer, Urinary bladder cancer, Uterine Cancer, Gallbladder Cancer, Bile Duct Cancer, NHL		
258 (LLYEGKLTL; listed as Homo sapiens) [compound 258]	Breast, Ovary				
221: peptide found in ACLY (gene looked up) (ILNVDGLIGV; listed as Homo sapiens) [compound 221]	Kidney, Brain, Liver, Prostate, Leukocytes	+			
111 (HMDDGGYSM; listed as Homo sapiens) [compound 111]		+			
105 (YALDLSTFL; listed as Homo sapiens) [compound 105]	Kidney, Liver		BRCA, Melanoma, Urinary bladder cancer, PC		
82 (QLYEEPDTKL; listed as Homo sapiens) [compound 82]	Leukocytes, Esophagus	++	SCLC, Melanoma, Urinary bladder cancer, Gallbladder Cancer, Bile Duct Cancer, AML, NHL		
226 (FLVDGSWSV; listed as Homo sapiens) [compound 226]	Lung, Stomach, Pancreas, Breast, Ovary, Esophagus	+			
214 (SVLEKEIYSI; listed as Homo sapiens) [compound 214]	Lung, Liver, Prostate, Breast, Ovary, Esophagus	+++			
120 (VLYEGVDEV; listed as Homo sapiens) [compound 120]			SCLC, BRCA, Gallbladder Cancer, Bile Duct Cancer		

Substance	Other relevant organs/diseases	Peptide Presentation (presentation score)	Additional Entities (additional tumor types on which the peptide was found)	number of cancer tissues with detectable presentation of the peptide (all samples with detectable presentation, all tumor types)	number of normal tissues with detectable presentation of the peptide (normal tissue panel as in FIG. 1A-C)
119 (ILYQTVTGL; listed as Homo sapiens) [compound 119]	Esophagus		CLL, Melanoma, Urinary bladder cancer, Uterine Cancer, AML, NHL		
78 (ALDPELLLL; listed as Homo sapiens) [compound 78]		+	AML		
175 (TLLGGKEAQALGV; listed as Homo sapiens) [compound 175]	Ovary				
144 (LLNDRIWLA; listed as Homo sapiens) [compound 144]	Esophagus	+	BRCA, Melanoma, Uterine Cancer		
231 (RLFADILNDV; listed as Homo sapiens) [compound 231]	Lung, Brain, Liver, Prostate, MCC, Ovary	+++			
238 (NMLEAVHTI; listed as Homo sapiens) [compound 238]	Lung, Liver, Melanoma, Ovary, Esophagus	++			
71 (RLWTEIPTAI; listed as Homo sapiens) [compound 71]	Liver	++	NSCLC, SCLC, Melanoma, Esophageal Cancer, Urinary bladder cancer		
163 (RLLHEVQEL; listed as Homo sapiens) [compound 163]	Brain	++	RCC, AML, NHL		
65 (FGAPGIISA; listed as Homo sapiens) [compound 65]	Stomach, Esophagus	+++			
91 (TVDVATPSV; listed as Homo sapiens) [compound 91]	Breast, Ovary		CLL		
177 (ALLQGAIESV; listed as Homo sapiens) [compound 177]	Melanoma, Ovary, Esophagus	+	SCLC, GC, Urinary bladder cancer, Gallbladder Cancer, Bile Duct Cancer		
21 (VLIDHRWVL; listed as Homo sapiens) [compound 21]		+++			
254 (VLFQEALWHV; listed as Homo sapiens) [compound 254]	Liver	++			
53 (FLLGSEIKL; listed as Homo sapiens) [compound 53]	Kidney, Pancreas	++	HCC, Melanoma, Urinary bladder cancer, AML		
174 (ILLDDNMQIRL; listed as Homo sapiens) [compound 174]	Liver, Melanoma, Ovary		SCLC, CLL, Urinary bladder cancer, AML		
54 (ALLNGEYLLAA; listed as Homo sapiens) [compound 54]	Liver, Ovary, Esophagus	+	NSCLC, Brain Cancer, GC, BRCA, Melanoma, Urinary bladder cancer, Uterine Cancer, Gallbladder Cancer, Bile Duct Cancer, AML, NHL		
116 (LVYQFVHPI; listed as Homo sapiens) [compound 116]	Pancreas, Prostate, Breast, Ovary		Urinary bladder cancer, Uterine Cancer, Gallbladder Cancer, Bile Duct Cancer		
253 (KLLDEVTYLEA; listed as Homo sapiens) [compound 253]	Liver				
59 (LLTDNVVKL; listed as Homo sapiens) [compound 59]	Lung, Liver, Esophagus	+	Melanoma, AML, NHL		
195 (LLLGERVAL; listed as Homo sapiens) [compound 195]	Liver, Ovary	+++			
36 (GLLESPSIFNFTA; listed as Homo sapiens) [compound 36]		+++	BRCA		
69 (GMLNEAEGKAIKL; listed as Homo sapiens) [compound 69]	Prostate	+			
256 (GLLEELVTV; listed as Homo sapiens) [compound 256]	Lung, Stomach, Pancreas, Ovary				
138 (KQFEGTVEI; listed as Homo sapiens) [compound 138]	Esophagus	+++	CLL, NHL		
